Experimental data published in US20250134809A1, “A PHYTOACTIVE ENCAPSULATED FORMULATION FOR NEURODEGENERATIVE DISEASES” (Gidaa Life Sciences Pvt. Ltd., priority 2022, published 2025).
Entries after “also recorded” stand apart in the source; their conditions may differ.

Tests used:
LPO, SOD, GSH, GPx = test: Oxidative stress / antioxidant markers in brain tissue of AlCl3 rats; type: in vivo, rat; details: G3 (Donepezil orally); for oxidative stress and antioxidant markers when compared to G2: p<0.05 & 0.01
TNF-α, IL-6, NFKB = test: Inflammatory markers in brain tissue of AlCl3 rats; type: in vivo, rat; details: G3 (Donepezil orally)
[1] = test system: Beta Amyloid, Gamma secretase, Beta secretase, APP; test: Neuronal markers in brain tissue of AlCl3 rats; type: in vivo, rat; details: G3 (Donepezil orally)
[2] = test system: rat brain hippocampus and cerebral cortex; test: Brain histopathology (Cresyl violet staining) of AlCl3 rats; type: in vivo; details: G3 (Donepezil orally)

Structure (SMILES): COc1cc2c(cc1OC)C(=O)C(CC1CCN(Cc3ccccc3)CC1)C2 (centres unmarked) [Donepezil]
- GPX (oxidative marker, mean values) (LPO, SOD, GSH, GPx; cortex tissue): 7.42
- GSH (oxidative marker, mean values) (LPO, SOD, GSH, GPx; cortex tissue): 26.33
- LPO (oxidative marker, mean values) (LPO, SOD, GSH, GPx; cortex tissue): 1.72
- SOD (oxidative marker, mean values) (LPO, SOD, GSH, GPx; cortex tissue): 0.46
- oxidative stress and antioxidant markers when compared to G2 (LPO, SOD, GSH, GPx; cortex): reduced oxidative stress and significantly increased antioxidant markers
- GPX (oxidative marker, mean values) (LPO, SOD, GSH, GPx; hippocampal tissue): 9.43
- GSH (oxidative marker, mean values) (LPO, SOD, GSH, GPx; hippocampal tissue): 8.27
- LPO (oxidative marker, mean values) (LPO, SOD, GSH, GPx; hippocampal tissue): 0.81
- SOD (oxidative marker, mean values) (LPO, SOD, GSH, GPx; hippocampal tissue): 0.26
- oxidative stress and antioxidant markers when compared to G2 (LPO, SOD, GSH, GPx; hippocampus): altered significantly
- IL-6 (inflammatory marker, mean values) (TNF-α, IL-6, NFKB; cortex tissue): 1692.33
- NFkB (inflammatory marker, mean values) (TNF-α, IL-6, NFKB; cortex tissue): 1.22
- TNFα (inflammatory marker, mean values) (TNF-α, IL-6, NFKB; cortex tissue): 19.55
- inflammatory markers levels when compared to G2 (TNF-α, IL-6, NFKB; hippocampus and cortex, p<0.05 and p<0.01): statistically significantly decreased
- IL-6 (inflammatory marker, mean values) (TNF-α, IL-6, NFKB; hippocampus tissue): 1676.83
- NFkB (inflammatory marker, mean values) (TNF-α, IL-6, NFKB; hippocampus tissue): 1.06
- TNFα (inflammatory marker, mean values) (TNF-α, IL-6, NFKB; hippocampus tissue): 24.06
- neuronal markers levels compared to G2 ([1]; both brain regions): statistically significantly reduced and it is near to normal; also recorded: brought down
- B APP (neuronal marker, mean values) ([1]; cortex): 6.54
- B Amyloid (neuronal marker, mean values) ([1]; cortex): 328.72
- Secretase (neuronal marker, mean values) ([1]; cortex): 611.78
- γ Secretase (neuronal marker, mean values) ([1]; cortex): 869.29
- APP (neuronal marker, mean values) ([1]; hippocampus): 471.17
- B Amyloid (neuronal marker, mean values) ([1]; hippocampus): 257.9
- B Secretase (neuronal marker, mean values) ([1]; hippocampus): 7.57
- γ Secretase (neuronal marker, mean values) ([1]; hippocampus): 1110.57
- Glial nodule [2]: not observed
- NFTs (minimal to mild severity) in cerebral cortex, animals affected [2]: 06/06
- NFTs (minimal to mild severity) in hippocampus, animals affected [2]: 05/06
- Neuronal degeneration [2]: not observed
- mononuclear cell infiltration, animals affected [2]: not observed
- Gliosis, animals affected ([2]; minimal (01/06) to mild (01/06) severity): 02 out of 06
